According to PubChem BioAssay AID445 (National Center for Advancing Translational Sciences (NCATS), 2006):
The other results are listed elsewhere or left out. Further columns of the screen follow, without active or inactive calls. Compounds called inactive in the main read-out are mostly missing here. Words in brackets tell the shape of the fitted curve; partial curves, single points and poor fits give uncertain potencies.

Assay: IkB Signaling
Conditions: ABC-DLBCL IkBa-CBG/CBR dual luciferase ratio (green luciferase fused to IkBa over red control in OCI-Ly3 lymphoma cells), 4 h
How it was run: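 Curves were fitted separately to fusion (green), unfused (red) and ratio luminescence, then classed by r2, magnitude and activity. Cells: OCI-Ly3, 4 h compound plus doxycycline at 37C; 10 uM MG-132 defined full response.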

[1] = measured here: control luc red channel unless noted

For `Cc1ccc(N2C(=O)CCSC23C(=O)N(Cc2ccc(F)cc2)c2ccccc23)cc1` (stereo not given), the AC50 [1] was 12.6 µM [falling, partial curve].

In the case of `CCOc1cccc(C(=O)N(Cc2ccc(F)cc2)Cc2ccco2)c1`, the AC50 [1] is reported as 25.1 µM [falling, single point].

In the case of `Cc1ccc(N2C(=O)CS(=O)(=O)C23C(=O)N(Cc2ccc(Cl)cc2)c2ccccc23)cc1C` (stereo not given), the AC50 [1] is reported as 0.00631 µM [falling, full curve, poor fit].

For `COc1ccc(-n2c(Cc3cccn3C)nnc2SCC(=O)Nc2ccccc2OC)cc1`, the AC50 [1] was 10 µM [falling, partial curve].

In the case of `COc1ccc(OC)c(NC(=O)Cn2c(=O)n(-c3ccc(Cl)cc3)c(=O)c3c(C)c(C)sc32)c1`, the AC50 [1] is reported as 5.01 µM [falling, full curve, poor fit].

For `O=C1CC(c2ccc(F)cc2F)c2cc3c(cc2N1)OCO3` (stereo not given), the AC50 [1] was 3.16 µM [falling, single point].

With `COc1ccc(C(=O)N(c2ccc(C)cc2)S(=O)(=O)c2ccc(C)cc2)cc1` the AC50 [1] was 25.1 µM [falling, partial curve].

For `CC1CCN(C(=O)CSc2nnc(NC(=O)Nc3ccccc3)s2)CC1`, the AC50 [1] was 3.16 µM [rising, partial curve].

With `COc1cc(C(=O)Nc2cc(-c3ccccc3)[nH]n2)cc(OC)c1OC` the AC50 [1] was 3.16 µM [falling, full curve].

In the case of `Cc1ccc2c(c1)N(C(=O)CCC(=O)NCc1cccs1)CC(C)O2` (stereo not given), the AC50 [1] is reported as 0.631 µM [rising, partial curve, poor fit].

With `COC(=O)c1ccccc1NC(=O)Cn1c(CCC(=O)O)ccc1-c1ccc(C)cc1` the AC50 [1] was 2.51 µM [falling, partial curve].

In the case of `CCOC(=O)C1CCN(C(=O)Cn2ncc3c4ccccc4n(Cc4ccccc4)c3c2=O)CC1`, the AC50 [1] is reported as 20 µM [falling, single point].

For `N#CCCS(=O)(=O)c1nnnn1-c1ccccc1`, the AC50 [1] was 2 µM [falling, full curve].

With `Cc1ccc(NC(=O)c2c(C)oc3ncn(CC(C)C)c(=O)c23)nc1` the AC50 [1] was 1.26 µM [rising, full curve].

In the case of `Cc1ccc(C(=O)CC2(O)C(=O)N(Cc3ccc4c(c3)OCO4)c3ccccc32)cc1` (stereo not given), the AC50 [1] is reported as 25.1 µM [falling, partial curve].

In the case of `CCc1ccc(OCC(=O)N(C)C2CCS(=O)(=O)C2)cc1` (stereo not given), the AC50 [1] is reported as 12.6 µM [falling, partial curve].

In the case of `Cc1cccc(CN2C(=O)c3ccccc3S(=O)(=O)c3ccc(C(=O)NC4CCCCC4)cc32)c1`, the AC50 [1] is reported as 10 µM [falling, partial curve].

In the case of `Cc1ccc(C)c(NS(=O)(=O)c2ccc3oc(=O)c4ncn(C)c4c3c2)c1`, the AC50 [1] is reported as 39.8 µM [falling, single point].

For `CCn1c(=O)c2sccc2n2c(CCC(=O)Nc3ccc(C(C)C)cc3)nnc12`, the AC50 [1] was 3.98 µM [falling, partial curve].

With `COc1ccccc1-c1nnc(SCC(=O)Nc2nc(-c3ccccc3)cs2)n1C` the AC50 (measured here: IkB-luc green channel) was 39.8 µM [falling, single point] and the AC50 (measured here: control luc red channel) was 15.8 µM [falling, partial curve].

For `Cc1ccc(CNC(=O)CCc2nc3cccnc3n2Cc2ccccc2)cc1`, the AC50 [1] was 6.31 µM [falling, single point].

With `CC(=O)Nc1ccc(NC(=O)C(NS(=O)(=O)c2ccc(Br)s2)c2ccccc2)cc1` (stereo not given) the AC50 [1] was 0.0158 µM [falling, full curve].

With `CCOc1ccc2nc(N(Cc3cccnc3)C(C)=O)sc2c1` the AC50 [1] was 39.8 µM [rising, single point].

For `COc1cc(S(=O)(=O)NC2CCCCC2)ccc1Cl`, the AC50 [1] was 20 µM [falling, partial curve].

In the case of `Cc1cc(Nc2ccc(O)cc2)ccc1N`, the AC50 [1] is reported as 6.31 µM [rising, full curve] [measured here: IkB-luc green channel].

In the case of `O=C(CCNS(=O)(=O)c1ccc2c(c1)CCN2C(=O)C1CC1)N1CCN(c2cccc(C(F)(F)F)c2)CC1`, the AC50 [1] is reported as 31.6 µM [falling, partial curve, poor fit].

In the case of `COCc1oc2ccc(NS(=O)(=O)c3ccc(C)cc3)cc2c1C(=O)OC`, the AC50 [1] is reported as 2 µM [falling, partial curve].

For `CCCC(=O)Nc1ccccc1C(=O)OCc1cc(=O)n2nc(C(C)C)sc2n1`, the AC50 [1] was 10 µM [falling, partial curve].

In the case of `CC(=O)c1cccc(NC(=O)Cn2cc(C(=O)c3cccc(Cl)c3)c(=O)c3ccc(C)nc32)c1`, the AC50 [1] is reported as 12.6 µM [falling, partial curve].

With `CCCOC(=O)c1[nH]c2c(c1C)C(=O)CC(c1cc(OC)c(OC)c(OC)c1)C2` (stereo not given) the AC50 [1] was 3.16 µM [falling, full curve].

In the case of `Cc1cc(C)cc(NC(=O)N2CCN(C(=O)c3nsc4ccccc34)CC2)c1`, the AC50 [1] is reported as 0.0501 µM [falling, full curve, poor fit].

With `COC(=O)c1ccc(-n2c(/C=C/c3cc(OC)c(OC)c(OC)c3)nc3cc(Cl)ccc3c2=O)cc1` the AC50 [1] was 10 µM [falling, partial curve].

In the case of `COCCn1c(SCc2ccc(C(=O)OC)o2)nc2cc(Cl)ccc2c1=O`, the AC50 [1] is reported as 39.8 µM [falling, single point].

With `CCOc1ccc2c(c1)c(=O)c(S(=O)(=O)c1ccc(CC)cc1)cn2Cc1cccc(Cl)c1` the AC50 [1] was 15.8 µM [falling, partial curve].

For `CCCSc1ncnc2c1c(-c1ccccc1)cn2-c1ccccc1OC`, the AC50 [1] was 5.01 µM [falling, single point].

With `Cc1ccc(NC(=O)C2CCN(S(=O)(=O)c3cccc4cccnc34)CC2)nc1` the AC50 [1] was 12.6 µM [falling, partial curve].

With `COc1ccc(OC)c(NC(=O)CS(=O)(=O)Cc2nc(-c3ccc(C)cc3)oc2C)c1` the AC50 [1] was 12.6 µM [falling, partial curve].

With `COc1ccc(CNC(=O)c2ccc(CS(=O)(=O)c3ccc(Br)cc3)o2)cc1` the AC50 [1] was 31.6 µM [falling, single point].

For `CCCCOC(=O)c1ccc(Nc2nc3ccc(C(=O)c4ccccc4)cc3n3cnnc23)cc1`, the AC50 [1] was 0.794 µM [rising, full curve, poor fit].
